Test results published in patent publication US20230303522A1, “ARYLTETRAHYDROPYRIDAZINE DERIVATIVE OR SALT THEREOF, INSECTICIDAL AGENT CONTAINING THE COMPOUND, AND METHOD OF USE THEREOF” (NIHON NOHYAKU CO., LTD., priority 2020, published 2023).
Some results were stated once for a whole list of compounds, not compound by compound.

Key:
Format in all cases: in vivo
[1] = test system: small brown planthopper (Laodelphax striatella); test: Insecticidal test on small brown planthopper (rice seedling dip); conditions: 500 ppm dispersion, rice seedlings dipped 30 seconds, 3rd-instar larvae, 8 days after inoculation
[2] = test system: diamondback moth (Plutella xylostella); test: Insecticidal test on diamondback moth (dip treatment of Chinese cabbage seedlings with laid eggs); conditions: 500 ppm dispersion, dip about 30 seconds, hatched larvae counted 6 days after treatment, 25° C.
[3] = test system: western flower thrips (Frankliniella occidentalis); test: Insecticidal test on western flower thrips (kidney bean leaf pieces); conditions: 500 ppm dispersion applied to hatched larvae on kidney bean leaf pieces, 4 days after treatment

O=C(Nc1ccc(F)cc1)C1=C(O)CN(c2ccc(C(F)(F)F)cc2)NC1=O [1-7, N-(4-fluorophenyl)-5-hydroxy-3-oxo-1-(4-trifluoromethylphenyl)-1,2,3,6-tetrahydropyridazine-4-carboxamide]
A (the mortality rate is 100%): insecticidal efficacy (corrected mortality rate criteria) against small brown planthopper [1] | insecticidal efficacy (mortality rate criteria) against diamondback moth [2] | insecticidal efficacy (mortality rate criteria) against western flower thrips [3]

O=C1NN(c2ccc(Cl)nc2)CC(O)=C1C(=S)Nc1ccc(F)cc1 [2-3, N-(4-fluorophenyl)-1-(6-chloropyridin-3-yl)-5-hydroxy-3-oxo-1,2,3,6-tetrahydropyridazine-4-carbothioamide]
A (the mortality rate is 100%): insecticidal efficacy (corrected mortality rate criteria) against small brown planthopper [1] | insecticidal efficacy (mortality rate criteria) against diamondback moth [2] | insecticidal efficacy (mortality rate criteria) against western flower thrips [3]

O=C(Nc1ccc(F)cc1)C1=C(O)CN(c2ccc(C(F)(F)F)nc2)NC1=S [2-5, N-(4-fluorophenyl)-1-(6-Trifluoromethylpyridin-3-yl)-5-Hydroxy-3-Thioxo-1,2,3,6-Tetrahydropyridazine-4-Carboxamide]
A (the mortality rate is 100%): insecticidal efficacy (corrected mortality rate criteria) against small brown planthopper [1] | insecticidal efficacy (mortality rate criteria) against diamondback moth [2] | insecticidal efficacy (mortality rate criteria) against western flower thrips [3]
